Data reported in publication PMC9348797.
These are yes or no findings as the source states them, for the method shown. Binding seen in cells or lysates may run through a third protein. Some binding calls cover weakened binding; strength is not graded here. For part of these data: Sequences can lack the tags named with a protein.

Legend:
[1] = target: T1, KCTD7 in pBiFC-VC155 (human) (UniProt Q96MP8); assay: split reporter; BiFC: CLN5 in pBiFC-VN173 and KCTD7 in pBiFC-VC155, cells transfected for 24 hours, fluorescence microscopy and FACS of GFP-positive cells
T1 sequence: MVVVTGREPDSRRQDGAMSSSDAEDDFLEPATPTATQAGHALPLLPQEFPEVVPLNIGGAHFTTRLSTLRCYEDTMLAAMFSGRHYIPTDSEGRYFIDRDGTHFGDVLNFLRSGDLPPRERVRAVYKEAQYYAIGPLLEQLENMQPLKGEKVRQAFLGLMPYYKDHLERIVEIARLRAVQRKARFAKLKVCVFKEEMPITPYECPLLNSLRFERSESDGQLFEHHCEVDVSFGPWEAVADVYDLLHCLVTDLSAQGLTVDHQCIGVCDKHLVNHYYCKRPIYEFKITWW

[2] = target: T2, KCTD7-FLAG (endogenous KCTD7 with a knocked-in FLAG tag) (human (endogenous in HeLa)) (UniProt Q96MP8); assay: co-IP; KCTD7-FLAG knock-in HeLa cells, IP with IgG or anti-FLAG antibody, Western blot of endogenous partners
T2 sequence: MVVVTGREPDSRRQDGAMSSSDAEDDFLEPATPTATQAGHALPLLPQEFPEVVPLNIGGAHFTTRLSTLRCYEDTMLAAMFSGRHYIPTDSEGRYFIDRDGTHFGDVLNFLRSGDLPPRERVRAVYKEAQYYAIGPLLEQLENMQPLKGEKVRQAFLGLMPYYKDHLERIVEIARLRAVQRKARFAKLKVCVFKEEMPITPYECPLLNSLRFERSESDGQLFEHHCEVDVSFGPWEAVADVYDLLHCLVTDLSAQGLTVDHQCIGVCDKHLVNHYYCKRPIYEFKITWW

[3] = target: T2, KCTD7-FLAG (endogenous KCTD7 with a knocked-in FLAG tag) (human (endogenous in HeLa)); assay: proximity ligation; Duolink in situ PLA in FLAG-KCTD7 KI HeLa cells with anti-FLAG and anti-CLN5 antibodies; single-antibody staining as negative control
[4] = target: T3, KCTD7-WT (transfected, 293T) (human) (UniProt Q96MP8); assay: co-IP; anti-FLAG co-IP from 293T cells transfected with the indicated plasmids, Western blot; MG132 (10 μM, 8 hours) before harvesting in Fig. 3E, 3G and 5E
T3 sequence: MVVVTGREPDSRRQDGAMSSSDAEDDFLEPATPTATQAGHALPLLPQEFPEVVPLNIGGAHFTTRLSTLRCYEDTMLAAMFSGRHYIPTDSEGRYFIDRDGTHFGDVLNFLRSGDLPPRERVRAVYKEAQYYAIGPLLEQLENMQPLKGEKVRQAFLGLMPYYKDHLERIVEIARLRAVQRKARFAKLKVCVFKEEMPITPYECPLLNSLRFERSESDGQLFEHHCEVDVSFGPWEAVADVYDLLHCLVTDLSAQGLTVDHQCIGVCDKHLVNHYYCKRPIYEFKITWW

[5] = target: T3, KCTD7-WT (transfected, 293T) (human); assay: co-IP; anti-FLAG co-IP from transfected 293T cells; lysates treated with or without PNGase F for 12 hours at 37°C before co-IP

B1: CLN5 in pBiFC-VN173 (protein, UniProt O75503 1-358)
chain: MAQEVDTAQGAEMRRGAGAARGRASWCWALALLWLAVVPGWSRVSGIPSRRHWPVPYKRFDFRPKPDPYCQAKYTFCPTGSPIPVMEGDDDIEVFRLQAPVWEFKYGDLLGHLKIMHDAIGFRSTLTGKNYTMEWYELFQLGNCTFPHLRPEMDAPFWCNQGAACFFEGIDDVHWKENGTLVQVATISGNMFNQMAKWVKQDNETGIYYETWNVKASPEKGAETWFDSYDCSKFVLRTFNKLAEFGAEFKNIETNYTRIFLYSGEPTYLGNETSVFGPTGNKTLGLAIKRFYYPFKPHLPTKEFLLSLLQIFDAVIVHKQFYLFYNFEYWFLPMKFPFIKITYEEIPLPIRNKTLSGL
binding [1]: binds

B2: CLN5 (endogenous, HeLa) (protein, UniProt O75503 1-358)
chain: MAQEVDTAQGAEMRRGAGAARGRASWCWALALLWLAVVPGWSRVSGIPSRRHWPVPYKRFDFRPKPDPYCQAKYTFCPTGSPIPVMEGDDDIEVFRLQAPVWEFKYGDLLGHLKIMHDAIGFRSTLTGKNYTMEWYELFQLGNCTFPHLRPEMDAPFWCNQGAACFFEGIDDVHWKENGTLVQVATISGNMFNQMAKWVKQDNETGIYYETWNVKASPEKGAETWFDSYDCSKFVLRTFNKLAEFGAEFKNIETNYTRIFLYSGEPTYLGNETSVFGPTGNKTLGLAIKRFYYPFKPHLPTKEFLLSLLQIFDAVIVHKQFYLFYNFEYWFLPMKFPFIKITYEEIPLPIRNKTLSGL
modifications: heavily N-glycosylated (about 50 kDa, about 35 kDa after PNGase F)
binding [2]: binds | binding [3]: binds

B3: CLN6 (transfected, 293T) (protein, UniProt Q9NWW5 1-311)
chain: MEATRRRQHLGATGGPGAQLGASFLQARHGSVSADEAARTAPFHLDLWFYFTLQNWVLDFGRPIAMLVFPLEWFPLNKPSVGDYFHMAYNVITPFLLLKLIERSPRTLPRSITYVSIIIFIMGASIHLVGDSVNHRLLFSGYQHHLSVRENPIIKNLKPETLIDSFELLYYYDEYLGHCMWYIPFFLILFMYFSGCFTASKAESLIPGPALLLVAPSGLYYWYLVTEGQIFILFIFTFFAMLALVLHQKRKRLFLDSNGLFLFSSFALTLLLVALWVAWLWNDPVLRKKYPGVIYVPEPWAFYTLHVSSRH
binding [4]: binds weakly

B4: CLN5 (transfected, 293T) (protein, UniProt O75503 1-358)
chain: MAQEVDTAQGAEMRRGAGAARGRASWCWALALLWLAVVPGWSRVSGIPSRRHWPVPYKRFDFRPKPDPYCQAKYTFCPTGSPIPVMEGDDDIEVFRLQAPVWEFKYGDLLGHLKIMHDAIGFRSTLTGKNYTMEWYELFQLGNCTFPHLRPEMDAPFWCNQGAACFFEGIDDVHWKENGTLVQVATISGNMFNQMAKWVKQDNETGIYYETWNVKASPEKGAETWFDSYDCSKFVLRTFNKLAEFGAEFKNIETNYTRIFLYSGEPTYLGNETSVFGPTGNKTLGLAIKRFYYPFKPHLPTKEFLLSLLQIFDAVIVHKQFYLFYNFEYWFLPMKFPFIKITYEEIPLPIRNKTLSGL
modifications: N-glycosylated
binding [5]: binds | binding [4]: binds
